Measured values as given in patent publication US11311592B2, “Bauhinia extract and uses thereof” (Academia Sinica, priority 2015, dated 2022).
At least one structure is not confirmed: it was looked up by name or label, or the drawing left a doubt.

System: p62-RL-HEK cells
Assay: Cell-based p62-Renilla luciferase reporter assay of autophagy activity
Parameters: species or system Human
Settings: positive controls: 3-MA 5 μM, rapamycin 200 nM; 24 hr at 37° C.
Method: FIG. 3. Treatments with BVEE induces autophagy. A. GFP-LC3-HEK cells were treated with BVEE (50 μg/ml) at 37° C. for 24 h. An autophagy inducer, rapamycin, and an autophagy inhibitor, 3-MA, were included as controls. Clarified lysates containing equal amounts of proteins were resolved by SDS-PAGE and analyzed by Western blotting with anti-p62 (top panel), anti-LC3 (middle panel), and anti-GAPDH (bottom panel) antibodies. B. A stable cell line p62-RL-HEK that overexpresses Renilla luciferase-tagged p62 was treated with BVEE (50 μg/ml) at 37° C. for 24 h. Additional treatments with either rapamycin or 3-MA were included as controls. Renilla luciferase signal was determined by the addition of coelenterazine at equal volume to a final concentration of 5 μM. Luminescence emitted by DMSO-treated cells (Control) was referred to as 100% relative Renilla luciferase signal;
FIG. 12. The autophagy-inducing potency of extracts derived from B. variegate (BV) by using different solvents. The p62-RL-HEK cells were treated with or without B. variegate extract ([…]) at 37° C. for 24 h. Additional treatments with either rapamycin (RAP) or 3-MA were included as references. Renilla luciferase (Luc) activity was determined by the addition of coelenterazine to a final concentration of […]. Luminescence emitted by DMSO-treated cells (Control) was referred to as 100% relative Renilla luciferase signal. […]

Compound: CO[C@H]1C[C@@H]2CC[C@@H](C)[C@@](O)(O2)C(=O)C(=O)N2CCCC[C@H]2C(=O)O[C@H]([C@H](C)C[C@@H]2CC[C@@H](O)[C@H](OC)C2)CC(=O)[C@H](C)/C=C(\C)[C@@H](O)[C@@H](OC)C(=O)[C@H](C)C[C@H](C)/C=C/C=C/C=C/1C [rapamycin]
- luciferase signal of p62-RL-HEK cells: significant decrease
